According to article PMC8580627:
Results are given in words; binding and its absence hold for the method and conditions named. Binding seen in cells or lysates may run through a third protein.

Sequences of proteins named here, by UniProt entry; tags and fusion partners are left off.
UniProt Q96EB6: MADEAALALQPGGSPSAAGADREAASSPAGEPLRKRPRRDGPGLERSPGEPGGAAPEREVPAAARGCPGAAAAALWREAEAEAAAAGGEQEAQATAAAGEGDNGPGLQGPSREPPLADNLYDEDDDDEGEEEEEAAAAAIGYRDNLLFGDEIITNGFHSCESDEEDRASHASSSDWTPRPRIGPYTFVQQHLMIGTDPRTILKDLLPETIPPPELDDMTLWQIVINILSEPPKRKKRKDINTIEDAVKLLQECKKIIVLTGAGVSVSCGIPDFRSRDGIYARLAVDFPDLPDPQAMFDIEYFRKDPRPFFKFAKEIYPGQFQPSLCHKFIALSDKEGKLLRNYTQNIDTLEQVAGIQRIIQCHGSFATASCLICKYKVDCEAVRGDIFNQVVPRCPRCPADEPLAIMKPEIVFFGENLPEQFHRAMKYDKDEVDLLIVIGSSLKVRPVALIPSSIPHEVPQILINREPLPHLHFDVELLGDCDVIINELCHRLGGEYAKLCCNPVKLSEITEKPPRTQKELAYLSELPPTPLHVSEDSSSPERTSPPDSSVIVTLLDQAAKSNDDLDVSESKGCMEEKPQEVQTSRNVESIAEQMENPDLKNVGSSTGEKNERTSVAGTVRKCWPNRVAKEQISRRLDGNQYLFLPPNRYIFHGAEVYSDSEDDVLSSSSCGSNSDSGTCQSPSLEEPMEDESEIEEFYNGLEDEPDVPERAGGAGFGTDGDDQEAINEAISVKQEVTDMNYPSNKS

Molecular target: Sirtuin-1 (SIRT1) (human) (UniProt Q96EB6)
Test: co-IP; WI-38 whole cell lysates in RIPA buffer, sonicated, precleared with protein G agarose; 5 ul SIRT1 antibody, DRG2 antibody or normal IgG overnight at 4°C; captured on rProtein G agarose 4 h at 4°C; western blot

- binding: no binding
B1: developmentally regulated GTP-binding protein 2 (DRG2) (protein, UniProt P55039 1-364)
chain: MGILEKISEIEKEIARTQKNKATEYHLGLLKAKLAKYRAQLLEPSKSASSKGEGFDVMKSGDARVALIGFPSVGKSTFLSLMTSTASEAASYEFTTLTCIPGVIEYKGANIQLLDLPGIIEGAAQGKGRGRQVIAVARTADVIIMMLDATKGEVQRSLLEKELESVGIRLNKHKPNIYFKPKKGGGISFNSTVTLTQCSEKLVQLILHEYKIFNAEVLFREDCSPDEFIDVIVGNRVYMPCLYVYNKIDQISMEEVDRLARKPNSVVISCGMKLNLDYLLEMLWEYLALTCIYTKKRGQRPDFTDAIILRKGASVEHVCHRIHRSLASQFKYALVWGTSTKYSPQRVGLTHTMEHEDVIQIVKK
